The text below walks through data of paper PMC11790007.

Chains of the proteins cited; added tags and fusions are not shown.
UniProt Q13619: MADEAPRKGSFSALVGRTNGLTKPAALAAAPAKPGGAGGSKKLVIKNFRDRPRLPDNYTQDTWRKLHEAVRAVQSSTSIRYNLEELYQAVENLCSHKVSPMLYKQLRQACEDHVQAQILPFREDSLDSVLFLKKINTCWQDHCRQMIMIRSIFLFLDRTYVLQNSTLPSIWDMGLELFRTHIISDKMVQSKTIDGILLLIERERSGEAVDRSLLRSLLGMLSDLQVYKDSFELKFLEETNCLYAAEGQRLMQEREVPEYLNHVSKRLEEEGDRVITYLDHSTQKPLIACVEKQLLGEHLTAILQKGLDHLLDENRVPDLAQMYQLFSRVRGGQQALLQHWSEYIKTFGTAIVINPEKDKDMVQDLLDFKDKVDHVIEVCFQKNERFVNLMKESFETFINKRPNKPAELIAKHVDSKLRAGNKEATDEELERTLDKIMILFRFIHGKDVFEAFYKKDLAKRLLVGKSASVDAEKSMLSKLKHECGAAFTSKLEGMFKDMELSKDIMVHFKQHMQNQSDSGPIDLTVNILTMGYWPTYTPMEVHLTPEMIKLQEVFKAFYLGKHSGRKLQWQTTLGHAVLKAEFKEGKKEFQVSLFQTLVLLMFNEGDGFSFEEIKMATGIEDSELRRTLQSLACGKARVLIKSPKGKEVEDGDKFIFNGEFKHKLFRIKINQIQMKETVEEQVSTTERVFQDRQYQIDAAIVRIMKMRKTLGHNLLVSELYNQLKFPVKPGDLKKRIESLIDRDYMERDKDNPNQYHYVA

In the assay the target is T1, chromobox protein homolog 4 (CBX4) (human (endogenous in J-Lat 10.6)) (UniProt O00257).
T1 sequence: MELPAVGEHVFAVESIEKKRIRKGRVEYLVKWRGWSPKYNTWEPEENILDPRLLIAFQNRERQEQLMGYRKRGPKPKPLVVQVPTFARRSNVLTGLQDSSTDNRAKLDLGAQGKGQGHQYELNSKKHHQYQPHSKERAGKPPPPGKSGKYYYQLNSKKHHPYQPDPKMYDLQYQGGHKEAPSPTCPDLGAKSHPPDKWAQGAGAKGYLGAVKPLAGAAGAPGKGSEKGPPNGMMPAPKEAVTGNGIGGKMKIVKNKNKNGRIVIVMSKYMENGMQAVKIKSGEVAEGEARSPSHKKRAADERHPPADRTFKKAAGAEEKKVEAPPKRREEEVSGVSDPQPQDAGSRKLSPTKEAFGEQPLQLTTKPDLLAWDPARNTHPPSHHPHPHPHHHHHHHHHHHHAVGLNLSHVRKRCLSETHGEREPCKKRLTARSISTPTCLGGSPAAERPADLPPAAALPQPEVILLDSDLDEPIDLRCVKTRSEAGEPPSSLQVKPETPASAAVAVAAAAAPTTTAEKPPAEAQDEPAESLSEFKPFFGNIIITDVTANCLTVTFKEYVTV
The assay is described as follows: co-IP; endogenous proteins; cells treated with 20 µM TA for 24 h, 4 µM MG132 added 16 h before collection; lysis in RIPA buffer (150 mM NaCl, 50 mM Tris-HCl pH 7.5, 1 mM EDTA, 1% NP40, 0.5% Triton X-100); immunoprecipitated with anti-CBX4 on Protein A + G magnetic beads at 4°C, western blot with anti-CBX4 and anti-CUL4A. For orientation: A western blot detects proteins with antibodies after separation by electrophoresis.

Results are given in words; binding and its absence hold for the method and conditions named. Binding seen in cells or lysates may run through a third protein. Some entries that bind do so weakly or less than the wild type.

As to “cullin 4A (CUL4A) (from UniProt Q13619 1-759)”, the binding result is reported as “binds”.
